Source: the supplement of paper PMC4604168 (melanoma cell lines)
The list shows a part of the results. Many values rest on one well or one pass, so single values are uncertain.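 Cells were imaged in 1,536-well plates, and nuclei stained with an antibody against cleaved PARP were counted against all DNA-stained nuclei to give the apoptosis fraction. Screening doses were chosen to leave most cells alive, and resting and induced cleaved-PARP levels differ strongly between cell lines.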

Columns and labels:
Test in all cases: cleaved PARP positive nuclei fraction relative to DMSO control; melanoma cells; higher = more apoptosis
Conditions in all cases: library dose: low library concentration; 72 h
[1] = system: CBRC034 (line from a melanoma biopsy)
[2] = system: COLO792
[3] = system: COLO800
[4] = system: COLO829
[5] = system: G361
[6] = system: IPC-298
[7] = system: IST-MEL1
[8] = system: LB2518-MEL
[9] = system: LOXIMVI
[10] = system: MEL-HO

Compound | cleaved PARP positive nuclei fraction [1] | cleaved PARP positive nuclei fraction [2] | cleaved PARP positive nuclei fraction [3] | cleaved PARP positive nuclei fraction [4] | cleaved PARP positive nuclei fraction [5] | cleaved PARP positive nuclei fraction [6] | cleaved PARP positive nuclei fraction [7] | cleaved PARP positive nuclei fraction [8] | cleaved PARP positive nuclei fraction [9] | cleaved PARP positive nuclei fraction [10]
Clc1ccc(Nc2nnc(Cc3ccncc3)c3ccccc23)cc1 [vatalanib] + C[As](C)SC[C@H](NC(=O)CC[C@H](N)C(=O)O)C(=O)NCC(=O)O [Darinaparsin] (first compound 2 µM, partner dose 0.4 µM) | 77.7% | 95.3% | 105% | 146% | 83.8% | 20.2% | 123% | 145% | 53.9% | 142%
C[C@@H](N)c1ccc(C(=O)Nc2ccnc3[nH]ccc23)cc1 + C[As](C)SC[C@H](NC(=O)CC[C@H](N)C(=O)O)C(=O)NCC(=O)O [Darinaparsin] (first compound 0.4 µM, partner dose 0.4 µM) | 175% | 161% | 179% | 99.8% | 223% | 209% | 171% | 33.9% | 481% | 141%
C[C@]12O[C@H](C[C@]1(O)CO)n1c3ccccc3c3c4c(c5c6ccccc6n2c5c31)CNC4=O [Lestaurtinib] + CO[C@H]1C[C@@H]2CC[C@@H](C)[C@@](O)(O2)C(=O)C(=O)N2CCCC[C@H]2C(=O)O[C@H]([C@H](C)C[C@@H]2CC[C@@H](OCCO)[C@H](OC)C2)CC(=O)[C@H](C)/C=C(\C)[C@@H](O)[C@@H](OC)C(=O)[C@H](C)C[C@H](C)/C=C/C=C/C=C/1C [everolimus] (first compound 0.004 µM, partner dose 0.02 µM) | 283% | 294% | 78% | 124% | 185% | 229% | 333% | 284% | 352% | 128%
N.N.[Cl][Pt][Cl] [cisplatin] + COc1ccc(Cl)c(Nc2nc3ccccc3nc2NS(=O)(=O)c2cccc(NC(=O)C(C)(C)N)c2)c1 [XL147] (first compound 1.6 µM, partner dose 0.8 µM) | 58.5% | 57.3% | 104% | 135% | 194% | 82.8% | 50.5% | 105% | 76.8% | 67.8%
C[C@]12O[C@H](C[C@]1(O)CO)n1c3ccccc3c3c4c(c5c6ccccc6n2c5c31)CNC4=O [Lestaurtinib] + CS(=O)(=O)c1ccc(C(=O)Nc2ccc(Cl)c(-c3ccccn3)c2)c(Cl)c1 [vismodegib] (first compound 0.004 µM, partner dose 1 µM) | 107% | 167% | 85.2% | 92.1% | 103% | 91.3% | 132% | 234% | 87.8% | 211%
CC1(C)CCC(c2ccc(Cl)cc2)=C(CN2CCN(c3ccc(C(=O)NS(=O)(=O)c4ccc(N[C@H](CCN5CCOCC5)CSc5ccccc5)c(S(=O)(=O)C(F)(F)F)c4)cc3)CC2)C1 + Cn1cc(C2=C(c3cn(C4CCN(Cc5ccccn5)CC4)c4ccccc34)C(=O)NC2=O)c2ccccc21 [Enzastaurin] (first compound 0.4 µM, partner dose 0.8 µM) | 89.7% | 419% | 156% | 64.7% | 133% | 304% | 80.3% | 523% | 484% | 145%
N.N.[Cl][Pt][Cl] [cisplatin] + Nc1ncn([C@H]2C[C@H](O)[C@@H](CO)O2)c(=O)n1 [decitabine] (first compound 1.6 µM, partner dose 0.1 µM) | 83.5% | 126% | 115% | 285% | 274% | 238% | 207% | 122% | 177% | 34.6%
Cn1cc(C2=C(c3cn(C4CCN(Cc5ccccn5)CC4)c4ccccc34)C(=O)NC2=O)c2ccccc21 [Enzastaurin] + CCCS(=O)(=O)Nc1ccc(F)c(C(=O)c2c[nH]c3ncc(Cl)cc23)c1F [PLX4720] (first compound 0.8 µM, partner dose 0.08 µM) | 150% | 94.1% | 92.2% | 33.6% | 150% | 85.1% | 257% | 106% | 131% | 80.1%
CC(=O)c1c(C)c2cnc(Nc3ccc(N4CCNCC4)cn3)nc2n(C2CCCC2)c1=O [palbociclib] + C[As](C)SC[C@H](NC(=O)CC[C@H](N)C(=O)O)C(=O)NCC(=O)O [Darinaparsin] (first compound 0.04 µM, partner dose 0.4 µM) | 68.5% | 77.6% | 49.5% | 105% | 57.6% | 103% | 81.6% | 72.2% | 109% | 102%
N.N.[Cl][Pt][Cl] [cisplatin] + CN1CCN(c2ccc3nc(-c4c(N)c5c(F)cccc5[nH]c4=O)[nH]c3c2)CC1 [Dovitinib] (first compound 1.6 µM, partner dose 0.1 µM) | 148% | 109% | 58.3% | 62.7% | 85.9% | 121% | 94.2% | 94% | 150% | 58%
CO[C@H]1C[C@@H]2CC[C@@H](C)[C@@](O)(O2)C(=O)C(=O)N2CCCC[C@H]2C(=O)O[C@H]([C@H](C)C[C@@H]2CC[C@@H](OCCO)[C@H](OC)C2)CC(=O)[C@H](C)/C=C(\C)[C@@H](O)[C@@H](OC)C(=O)[C@H](C)C[C@H](C)/C=C/C=C/C=C/1C [everolimus] + C[As](C)SC[C@H](NC(=O)CC[C@H](N)C(=O)O)C(=O)NCC(=O)O [Darinaparsin] (first compound 0.02 µM, partner dose 0.4 µM) | 79.1% | 123% | 93.9% | 105% | 158% | 39.9% | 61.2% | 141% | 97.4% | 61.7%
CC[C@]1(O)C[C@H]2CN(CCc3c([nH]c4ccccc34)[C@@](C(=O)OC)(c3cc4c(cc3OC)N(C=O)[C@H]3[C@@](O)(C(=O)OC)[C@H](OC(C)=O)[C@]5(CC)C=CCN6CC[C@]43[C@@H]65)C2)C1 [vincristine] + C[As](C)SC[C@H](NC(=O)CC[C@H](N)C(=O)O)C(=O)NCC(=O)O [Darinaparsin] (first compound 0.0001 µM, partner dose 0.4 µM) | 67% | 114% | 89.2% | 133% | 163% | 85.1% | 98.6% | 57.6% | 77.1% | 96.8%
O=C(/C=C/c1cccnc1)NCCCCC1CCN(C(=O)c2ccccc2)CC1 + N.N.[Cl][Pt][Cl] [cisplatin] (first compound 0.01 µM, partner dose 1.6 µM) | 956% | 878% | 403% | 254% | 6570% | 670% | 106% | 156% | 140% | 437%
Cn1cc(C2=C(c3cn(C4CCN(Cc5ccccn5)CC4)c4ccccc34)C(=O)NC2=O)c2ccccc21 [Enzastaurin] + Clc1ccc(Nc2nnc(Cc3ccncc3)c3ccccc23)cc1 [vatalanib] (first compound 0.8 µM, partner dose 2 µM) | 77.9% | 87.6% | 145% | 148% | 85.9% | 106% | 131% | 171% | 41.2% | 116%
C[C@]12O[C@H](C[C@]1(O)CO)n1c3ccccc3c3c4c(c5c6ccccc6n2c5c31)CNC4=O [Lestaurtinib] + Nc1ncn([C@H]2C[C@H](O)[C@@H](CO)O2)c(=O)n1 [decitabine] (first compound 0.004 µM, partner dose 0.1 µM) | 148% | 72.6% | 154% | 40.2% | 202% | 41.5% | 150% | 391% | 131% | 102%
Cn1cc(C2=C(c3cn(C4CCN(Cc5ccccn5)CC4)c4ccccc34)C(=O)NC2=O)c2ccccc21 [Enzastaurin] + C[C@]12O[C@H](C[C@]1(O)CO)n1c3ccccc3c3c4c(c5c6ccccc6n2c5c31)CNC4=O [Lestaurtinib] (first compound 0.8 µM, partner dose 0.004 µM) | 201% | 77.7% | 85.9% | 57.7% | 62.3% | 114% | 28.8% | 123% | 70.5% | 63.9%
C[C@]12O[C@H](C[C@]1(O)CO)n1c3ccccc3c3c4c(c5c6ccccc6n2c5c31)CNC4=O [Lestaurtinib] + CN1CCN(c2ccc3nc(-c4c(N)c5c(F)cccc5[nH]c4=O)[nH]c3c2)CC1 [Dovitinib] (first compound 0.004 µM, partner dose 0.1 µM) | 46.6% | 47.2% | 62.1% | 107% | 80.8% | 92.9% | 66% | 86.4% | 65.2% | 140%
C[C@]12O[C@H](C[C@]1(O)CO)n1c3ccccc3c3c4c(c5c6ccccc6n2c5c31)CNC4=O [Lestaurtinib] + CCCCCCCCc1ccc(CCC(N)(CO)CO)cc1 [fingolimod] (first compound 0.004 µM, partner dose 2 µM) | 104% | 87.7% | 89.2% | 65.5% | 116% | 44.5% | 316% | 98.2% | 183% | 119%
Cn1sc(=O)n(Cc2ccccc2)c1=O + C[As](C)SC[C@H](NC(=O)CC[C@H](N)C(=O)O)C(=O)NCC(=O)O [Darinaparsin] (first compound 0.4 µM, partner dose 0.4 µM) | 89.3% | 100% | 153% | 45.6% | 83.4% | 40.4% | 127% | 227% | 110% | 69.6%
N.N.[Cl][Pt][Cl] [cisplatin] + C[As](C)SC[C@H](NC(=O)CC[C@H](N)C(=O)O)C(=O)NCC(=O)O [Darinaparsin] (first compound 1.6 µM, partner dose 0.4 µM) | 44.5% | 99% | 90.8% | 119% | 162% | 117% | 233% | 198% | 125% | 129%
C[As](C)SC[C@H](NC(=O)CC[C@H](N)C(=O)O)C(=O)NCC(=O)O [Darinaparsin] + COCC[n+]1c2c(n(Cc3cnccn3)c1C)C(=O)c1ccccc1C2=O [YM155] (first compound 0.4 µM, partner dose 0.0004 µM) | 96.7% | 132% | 76.6% | 42.4% | 100% | 84.7% | 25.9% | 210% | 185% | 106%

Limited to cleaved PARP positive nuclei fraction [1] (two entries from above):

| Compound | cleaved PARP positive nuclei fraction [1] |
| --- | --- |
| C[C@]12O[C@H](C[C@]1(O)CO)n1c3ccccc3c3c4c(c5c6ccccc6n2c5c31)CNC4=O [Lestaurtinib] + CO[C@H]1C[C@@H]2CC[C@@H](C)[C@@](O)(O2)C(=O)C(=O)N2CCCC[C@H]2C(=O)O[C@H]([C@H](C)C[C@@H]2CC[C@@H](OCCO)[C@H](OC)C2)CC(=O)[C@H](C)/C=C(\C)[C@@H](O)[C@@H](OC)C(=O)[C@H](C)C[C@H](C)/C=C/C=C/C=C/1C [everolimus] (first compound 0.004 µM, partner dose 0.02 µM) | 283% |
| N.N.[Cl][Pt][Cl] [cisplatin] + COc1ccc(Cl)c(Nc2nc3ccccc3nc2NS(=O)(=O)c2cccc(NC(=O)C(C)(C)N)c2)c1 [XL147] (first compound 1.6 µM, partner dose 0.8 µM) | 58.5% |
